According to patent US20250345314A1 (PUSAN NATIONAL UNIVERSITY INDUSTRY-UNIVERSITY COOPERATION …, priority 2024, published 2025):
At least one structure is not confirmed: it was looked up by name or label, or the drawing left a doubt.

How the values were obtained:
[1] = system: mesenchymal stem cells UCB #001, UCB #006, and UCB #192; assay: HGF secretion of mesenchymal stem cells by ELISA; assay type: cell-based; settings: mesenchymal stem cells treated with rapamycin 1.25 to 80 ng/ml
Method: (§1) In addition, changes in HGF and PGE2 secretion in mesenchymal stem cells treated with rapamycin at various concentrations were analyzed by ELISA. The results of analyzing HGF and PGE2 secretion were shown in FIGS. 2B and 2C, respectively.
(§2) The effects of pirfenidone, a drug used clinically as an anti-fibrotic drug, on the survival rate of mesenchymal stem cells and the secretion of HGF and PGE2 were confirmed in the same manner as rapamycin. The results of confirming the survival rate of mesenchymal stem cells according to pirfenidone treatment were shown in FIG. 3A, and the results of analyzing HGF and PGE2 secretion were shown in FIGS. 3B and 3C, respectively.

[2] = system: mesenchymal stem cells UCB #001, UCB #006, and UCB #192; assay: PGE2 secretion of mesenchymal stem cells by ELISA; assay type: cell-based; settings: mesenchymal stem cells treated with rapamycin 1.25 to 80 ng/ml
Method: as §1, §2

Compound: CO[C@H]1C[C@@H]2CC[C@@H](C)[C@@](O)(O2)C(=O)C(=O)N2CCCC[C@H]2C(=O)O[C@H]([C@H](C)C[C@@H]2CC[C@@H](O)[C@H](OC)C2)CC(=O)[C@H](C)/C=C(\C)[C@@H](O)[C@@H](OC)C(=O)[C@H](C)C[C@H](C)/C=C/C=C/C=C/1C [rapamycin]
- secretion of HGF [1]: increased in a rapamycin concentration-dependent manner
- secretion of PGE2 [2]: significantly increased
